First the molecules themselves.
B1: il10ra_site1_normal_mot_49468d6c54d8157f7969f91124172a68_0001_af2_000000173_0001_37_51_H_._HHH_b1_04887_af2_0001_0000100004_0000002_0_af2pred_dldesign_0_af2pred (protein)
chain: SSSSSAERAAAVHKAEVAFELAKASNNPNALAALRDYVTELYEKTGDPRLKEILAELDKALSSSS
B2: il10ra_site1_normal_mot_HHH_b1_02397_af2_000000085_0001_39_57_H_._HHH_b1_07134_af2_0001_0000100009_0000001_0 (protein)
chain: SSSSDEEQEELEELVRLLEELLKEGDQERFARTAQRALRIAFRLRDPEALQALWELVKKFASSSS
B3: il10ra_site1_sap_23_mot_HHH_b2_06321_af2_000000133_0001_42_55_H_._HHH_b2_05427_af2_0001_0000400018_0000001_0_0001 (protein)
chain: SSSSDELREEVFELSEEAAKLHHEGDEEEAERVLEEAEELAREGGDRLFLMQVEFILRKISSSSS
B4: il10ra_site1_sap_16_mot_HHH_b2_06979_000000158_0001_42_57_H_._HHH_b1_00759_0001_0000400027_0000001_0_0001 (protein)
chain: SSSSSSTKREEIYELLQEAAEIDDPEERERLLERAEELAEEAGDRVLLIIARFIRERGSSSSSSS
B5: il10ra_site1_sap_23_mot_HHH_b1_06174_af2_000000107_0001_40_57_H_._HHH_b1_02529_0001_0000200009_0000001_0_0001 (protein)
chain: DHLFVWQLRFAVERGNLEAVLEKLAEMAKRAGDPERLKAVEIAIELLRKGVPPEEVVEIFEELLR
B6: il10ra_site1_normal_mot_HHH_b2_00837_af2_000000287_0001_40_54_H_._HHH_b1_03367_af2_0001_0000100002_0000002_0 (protein)
chain: SSSSDEEEEELEKLLEELEKLVEEGDPERVARVAAEIARLAFRLNDPEVLRRAWELVRAVKSSSS
B7: il10ra_site1_sap_22_mot_HHH_b1_02397_af2_000000085_0001_39_57_H_._HHH_b2_02441_0001_0000100003_0000001_0_0001_af2pred_0001 (protein)
chain: SSSSDEERVLRLLIEALKLAFNGDPEEAEKLLEEAERIAEESNDERLEEAIEQAANIVKSASSSS
B8: il10ra_site1_sap_26_mot_HHH_b1_02665_000000293_0001_1_18_H_._HHH_b1_05149_af2_0001_0000500014_0000001_1_0001_af2pred_0001 (protein)
chain: SSPEEAEKLLREAEELAEEQNDERAREAVEILKRLLKVAKELNDEFAVELVERSARIILENLQRS
B9: il10ra_site1_normal_mot_HHH_b1_03333_000000091_0001_1_17_H_._HHH_b2_03837_af2_0001_0000500026_0000001_0 (protein)
chain: SSSSDFYEEVKELIEKAAQLQREGDEEKVEELLERLEELAEEFNSPVVEASVRALRLALRSSSSS
B10: il10ra_site1_normal_mot_HHH_b2_03568_000000058_0001_1_19_H_._HHH_b2_07674_0001_0000200018_0000002_0 (protein)
chain: SSSSSDESYEIVRKAIEEAIELEREGNPEEAKKVLEEALKELEELNDEVTRFSLELLLRQLSSSS
B11: il10ra_site1_normal_mot_HHH_b1_08697_af2_000000298_0001_1_18_H_._HHH_b2_02739_0001_0000300015_0000001_0 (protein)
chain: SSSSDKERRAARFWLRLFKQATDPRELKLIFRALENLAKVANDPEIEEILEEVEELLEQLSSSSS
B12: il10ra_site1_sap_20_mot_HHH_b1_06837_000000150_0001_20_37_H_._HHH_b1_02062_0001_0000500034_0000001_0_0001 (protein)
chain: SSSSDEEVRERAREIYERLQELIEEGDEERVQKLMQELVELANKGNDIEAARLATEIVKLSSSSS
B13: il10ra_site1_normal_mot_HHH_b2_05548_000000224_0001_41_54_H_._HHH_b1_07835_0001_0000100002_0000002_0_af2pred_0001 (protein)
chain: SSSSSDEEVEQLLEEAERLLKEGNPEEAAKVVAKAAELALELGNVELIKLVVELLRLIANSSSSS
B14: il10ra_site1_normal_mot_HHH_b2_08186_000000021_0001_43_56_H_._HHH_b1_06983_af2_0001_0000300013_0000001_0 (protein)
chain: SSSSDLEERVEELLERIEELLEEGNPREAVQLIQEAVRLAFEANNAELLRRLWELLREAAGSSSS
B15: il10ra_site1_sap_16_mot_HHH_b2_03328_af2_000000127_0001_1_19_H_._HHH_b2_02243_0001_0000100001_0000001_0_0001 (protein)
chain: SSSSSTQELYELLRRIVELDHEGDEEEARKVLEEAEELAEELGNVAIKMQLEFLRKILEKSSSSS
B16: il10ra_site1_sap_19_mot_HHH_b1_07743_af2_000000164_0001_42_55_H_._HHH_eva_0456_af2_0001_0000400013_0000001_0_0001_af2pred_0001 (protein)
chain: SSSSDMAEREHERAEQNLRHLVEAGDPEKVKLFVKLVKSILEELGNPELVEELEKLLEELNSSSS
B17: il10ra_site1_normal_mot_HHH_b1_05326_000000242_0001_1_20_H_._HHH_b2_06441_af2_0001_0000200013_0000001_0 (protein)
chain: SSSSSDEKEEALRLSLEAFRLLLRGDREQAEEVLKEALRLAEELGNERLARVIRDLLQAISSSSS
B18: il10ra_site1_normal_mot_HHH_b2_05686_000000041_0001_1_18_H_._HHH_b1_03447_0001_0000100002_0000003_0 (protein)
chain: SSSSTTAERSIEFALELAEELLELGNPEAAELILRQAREAAKAAENPELLRELEELLEEIRSSSS
B19: il10ra_site1_sap_18_mot_HHH_b2_08144_af2_000000046_0001_38_52_H_._HHH_b2_06268_0001_0000100001_0000003_0_0001 (protein)
chain: SSSSSEAFELARRAIEELIELAEEGDPEKVEELAEEVAERLEELGNQLAARQIKYLAKVELSSSS

Some of the results follow.

The values below come from publication PMC10163288.

The test addresses il10ra, Q13651. Nature of the test: yeast display titration.
As to B1, the “apparent Kd” value is “inactive: no binding seen”.
The same measure for B2: “inactive: no binding seen”; for B3: “inactive: no binding seen”; for B4: “inactive: no binding seen”.
To B5 belongs “inactive: no binding seen”.
As for B6, the “apparent Kd” value was “inactive: no binding seen”.
To B7 belongs “inactive: no binding seen”; to B8, “inactive: no binding seen”; to B9, “inactive: no binding seen”.
To B10 belongs “inactive: no binding seen”; to B11, “inactive: no binding seen”.
In the case of B12, the “apparent Kd” value was “inactive: no binding seen”.
The same measure for B13: “inactive: no binding seen”; for B14: “inactive: no binding seen”; for B15: “inactive: no binding seen”.
The same measure for B16: “inactive: no binding seen”; for B17: “inactive: no binding seen”.
The same measure for B18: “inactive: no binding seen”.
On to B19, for which the “apparent Kd” value was “inactive: no binding seen”.
